No constants are given. Whether binding was seen depends on the method and setting. For some assays here: In cells and extracts the contact can be indirect. Some binding calls cover weakened binding; strength is not graded here. For some assays here: Sequences can lack the tags named with a protein. Values belong to the molecule of their own block, whether it stands above or below them.
Assays:
[1] = target: 6xHis-tagged recombinant human mCherry-EB3 (human) (UniProt Q9UPY8); experiment: TIRF microscopy of an in vitro reconstitution; composite assay with Gas2L1, F-actin (1 μM), MTs and EB3; both purified
[2] = target: T1, bioGFP-Tail, MT-binding C-terminal fragment of Gas2L1 (human) (UniProt Q99501); experiment: pull-down; biotinylated bioGFP-Gas2L1 fragments on streptavidin Dynabeads, HA-CH co-expressed in HEK293; lysis 50 mM Tris-HCl pH 7.5, 233 mM NaCl, 0.5% Triton X-100, 5 mM MgCl2; 4°C; blot for HA
T1 sequence (chain, biotin on the AviTag (by co-expressed biotin ligase BirA)): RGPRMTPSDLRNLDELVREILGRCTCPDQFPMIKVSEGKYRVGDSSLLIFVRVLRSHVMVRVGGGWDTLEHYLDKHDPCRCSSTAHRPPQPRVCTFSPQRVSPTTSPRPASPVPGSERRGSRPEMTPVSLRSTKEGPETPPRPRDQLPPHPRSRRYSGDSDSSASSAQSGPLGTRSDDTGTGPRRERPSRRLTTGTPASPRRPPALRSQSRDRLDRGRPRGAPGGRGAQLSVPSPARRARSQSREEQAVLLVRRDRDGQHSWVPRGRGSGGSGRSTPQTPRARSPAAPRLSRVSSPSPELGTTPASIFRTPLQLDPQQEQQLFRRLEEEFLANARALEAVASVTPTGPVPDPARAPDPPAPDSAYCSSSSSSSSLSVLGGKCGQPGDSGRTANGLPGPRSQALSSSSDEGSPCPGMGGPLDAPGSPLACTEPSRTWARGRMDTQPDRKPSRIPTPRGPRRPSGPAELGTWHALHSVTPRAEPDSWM

binding [1]: no binding
Molecule: StrepII-GFP-Gas2L1, purified full-length Gas2L1 (from UniProt Q99501 1-681)

binding [2]: binds
B1: HA-tagged CH domain of Gas2L1 (domain or fragment, UniProt Q99501 27-148)
chain: EAMKEDLAEWLNALYGLGLPGGGDGFLTGLATGTTLCQHANAVTEAARALAAARPARGVAFQAHSVVPGSFMARDNVATFIGWCRVELGVPEVLMFETEDLVLRKNEKSVVLCLLEVARRGA
